Assay results taken from the supplement of paper PMC10849652.
The other results are listed elsewhere or left out.

Sequences of proteins named here, by UniProt entry; tags and fusion partners are left off. A change or cut given only in a name is not applied to a line headed by its entry.
UniProt Q8IVI9: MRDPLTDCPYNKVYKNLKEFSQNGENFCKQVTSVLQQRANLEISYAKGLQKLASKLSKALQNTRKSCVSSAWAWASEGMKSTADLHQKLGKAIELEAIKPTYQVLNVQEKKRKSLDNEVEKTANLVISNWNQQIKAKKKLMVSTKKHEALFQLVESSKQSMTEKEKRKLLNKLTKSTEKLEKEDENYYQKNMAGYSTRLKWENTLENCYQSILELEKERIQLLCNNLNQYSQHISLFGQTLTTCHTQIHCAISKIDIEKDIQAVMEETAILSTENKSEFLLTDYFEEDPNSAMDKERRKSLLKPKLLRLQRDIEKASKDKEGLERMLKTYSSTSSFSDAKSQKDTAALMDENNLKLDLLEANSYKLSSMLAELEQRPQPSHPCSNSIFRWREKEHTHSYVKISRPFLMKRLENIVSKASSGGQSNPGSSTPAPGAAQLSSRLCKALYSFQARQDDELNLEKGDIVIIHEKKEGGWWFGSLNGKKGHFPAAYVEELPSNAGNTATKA
UniProt Q9NPE2: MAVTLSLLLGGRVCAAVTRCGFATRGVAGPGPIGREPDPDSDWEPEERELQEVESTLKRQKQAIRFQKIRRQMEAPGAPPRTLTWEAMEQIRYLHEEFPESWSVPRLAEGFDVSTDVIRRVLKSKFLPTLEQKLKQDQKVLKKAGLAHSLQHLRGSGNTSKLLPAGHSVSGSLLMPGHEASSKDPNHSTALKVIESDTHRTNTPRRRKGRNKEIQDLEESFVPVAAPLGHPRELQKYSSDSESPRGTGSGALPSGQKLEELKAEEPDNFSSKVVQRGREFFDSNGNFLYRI

Columns and labels:
Test in all cases: log2 fold change, soluble protein after heating vs DMSO (PISA); higher = thermal stabilisation; K562 cells, 10 uM, 30 min; active = over 0.2 and 3.5 SD of the protein, either way, in both replicates (recomputed)
[1] = compound: CS(=O)(=O)c1ccc(-c2cnc(N)c(C(=O)Nc3ccccc3)n2)cc1
How it was run: (§1)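 Quantification of soluble protein used TMTpro 16plex LC-MS/MS, with channel sums equalised. Samples were the supernatant after 21,000xg for 90 min of pooled aliquots from K562 cells (2×10^6 cells/mL) treated with 10 μM compound for 30 min, heated for 3 min over 48°C-58°C, and extracted in PBS with 0.5% NP-40 at 4°C. Values, from duplicates, describe thermal stability against control samples on a log2 fold-change scale.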

[2] = compound: Cc1ccc(C(=O)N(CCCN)[C@@H](c2nc3cc(Cl)ccc3c(=O)n2Cc2ccccc2)C(C)C)cc1 [ispinesib]
How it was run: as §1

[3] = compound: Cc1cn(-c2cc(NC(=O)c3ccc(C)c(Nc4nccc(-c5cccnc5)n4)c3)cc(C(F)(F)F)c2)cn1 [nilotinib]
How it was run: as §1

[4] = compound: Cc1nc(Nc2n[nH]c3c2CN(C(=O)N[C@H](CN(C)C)c2ccccc2)C3(C)C)c2sccc2n1
How it was run: as §1

[5] = compound: Cc1ncc(-c2ccnc(Nc3ccc(S(C)(=O)=O)cc3)n2)n1C(C)C
How it was run: as §1

[6] = compound: Cn1cc(-c2ccc3nnc(C(F)(F)c4ccc5ncccc5c4)n3n2)cn1
How it was run: as §1

[7] = compound: FC(F)(F)c1ccc(/C=C/c2nc(COc3ccc(CCCCn4ccnn4)cc3)co2)cc1 [mubritinib]
How it was run: as §1

[8] = compound: C[C@@H]1COCCN1C2=NC(=NC(=C2)C3(CC3)S(=O)(=O)C)C4=C5C=CNC5=CC=C4
How it was run: as §1

[9] = compound: C[C@H](C1=CC=C(C=C1)C(=O)NC2=C3C=CNC3=NC=C2)N
How it was run: as §1

[10] = compound: C[C@H](Nc1ncnc2nc[nH]c12)c1cc2cccc(Cl)c2c(=O)n1-c1ccccc1 [duvelisib]
How it was run: as §1

[11] = compound: Cc1cc(Nc2cc(CN3CCOCC3)c3nc(C)c(Cc4ccc(Cl)cc4F)n3n2)n[nH]1 [gandotinib]
How it was run: as §1

[12] = compound: Cc1cc(Nc2cc(N3CCN(C)CC3)nc(Sc3ccc(NC(=O)C4CC4)cc3)n2)n[nH]1 [tozasertib]
How it was run: as §1

[13] = compound: Cc1cc(SCc2sc(-c3ccc(C(F)(F)F)cc3)nc2C)ccc1OCC(=O)O
How it was run: as §1

[14] = compound: Cc1ccc(NC(=O)c2ccc(CN3CC[C@H](N(C)C)C3)c(C(F)(F)F)c2)cc1Nc1nccc(-c2cncnc2)n1 [bafetinib]
How it was run: as §1

[15] = compound: Cc1cccc(CC(=O)N2CCc3c2ccc(-c2cn(C)c4ncnc(N)c24)c3F)n1
How it was run: as §1

[16] = compound: Cc1nc(Nc2ncc(C(=O)Nc3c(C)cccc3Cl)s2)cc(N2CCN(CCO)CC2)n1 [dasatinib]
How it was run: as §1

[17] = compound: Cn1cc(-c2ccc3c(c2)CCN3C(=O)Cc2cccc(C(F)(F)F)c2)c2c(N)ncnc21
How it was run: as §1

[18] = compound: Cn1cncc1[C@@](N)(c1ccc(Cl)cc1)c1ccc2c(c1)c(-c1cccc(Cl)c1)cc(=O)n2C [tipifarnib]
How it was run: as §1

Measured: log2 fold change

NOSTRIN isoform 4 (UniProt Q8IVI9)
inactive: [1] -0.031 | [2] -0.449 | [3] 0.108 | [4] -0.123 | [5] -0.019 | [6] -0.007 | [7] -0.39

NGRN (UniProt Q9NPE2)
inactive: [1] -0.023 | [8] -0.01 | [9] 0.036 | [10] -0.046 | [11] 0.022 | [12] -0.095 | [13] -0.04 | [14] 0.063 | [15] 0.042 | [3] -0.044 | [4] -0.024 | [16] -0.15 | [5] 0.016 | [17] 0.056 | [18] 0.013 | [7] -0.046

NIPSNAP2 (UniProt C9J7B1)
inactive: [1] 0 | [14] -0.045 | [7] 0.173
